# Reference: PubChem BioAssay AID1159578 (Peter MacCallum Cancer Centre, 2015)
# Purpose: 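Knock-downs that alter how fast lymphatic endothelial cells migrate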 (primary screen)
# Cells: human lymphatic endothelial cells
# Knock-down reagent: siRNA pool against human genes, 40 nM
# Time to read-out: 48 h after transfection
# Measured: 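Cells stained with dye and imaged after a scratch; covered wound area and nuclei counted, duplicates averaged, migration set against mock wells and turned into a robust z-score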
# Scale: migration robust z-score: higher = faster migration into the scratch; migration relative to mock: higher = more scratch area covered than mock; nuclei per well: higher = more cells in the well
# Active means: 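Migration changed when robust z exceeds 2 or falls below -2 and mean nuclei number is at least 3300; otherwise not called changed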
# Calls: active = migration changed; inactive = no migration change, or too few cells
# In all, the deposit lists about 18,000 reagents; below is a random part of them. About 1,030 of all reagents (5.7%) count as active. 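Inactive calls also include pools with fewer than 3300 nuclei, whose migration was not assessed.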 Raw values vary from plate to plate and are shown uncorrected. Reagent sequences are not shown.
gene,migration robust z-score,migration class with cell-count check,migration relative to mock,"nuclei per well, duplicate mean",call
GORASP2,-0.02,migration z between -2 and 2; enough cells,0.88,6507,inactive
MTA1,0,migration z between -2 and 2; enough cells,0.8,5768,inactive
OR52K1,-0.6,migration z between -2 and 2; enough cells,0.73,5228,inactive
PARVB,0.08,migration z between -2 and 2; enough cells,0.9,5888,inactive
CRHR1,-0.36,migration z between -2 and 2; enough cells,0.74,5440,inactive
ARL6IP5,0.66,migration z between -2 and 2; enough cells,1.06,6226,inactive
PSPH,0.75,migration z between -2 and 2; enough cells,0.95,6997,inactive
ERLIN1,2.26,migration z above 2; enough cells,1.47,7158,active
SENP6,0.86,migration z between -2 and 2; enough cells,0.97,5903,inactive
LUC7L,-0.01,migration z between -2 and 2; enough cells,0.88,3932,inactive
TOR3A,-0.08,migration z between -2 and 2; enough cells,0.79,4167,inactive
JMJD6,-0.57,migration z between -2 and 2; enough cells,0.7,5534,inactive
UBE4B,1.3,migration z between -2 and 2; enough cells,1.06,5735,inactive
PDE3A,1.66,migration z between -2 and 2; enough cells,1.12,6545,inactive
LIX1,0.15,migration z between -2 and 2; enough cells,0.92,5455,inactive
OR6N1,0.64,migration z between -2 and 2; enough cells,1.05,5742,inactive
PDE7B,0.83,migration z between -2 and 2; enough cells,0.96,6578,inactive
RPL7A,-3.64,under 3300 nuclei; migration not judged,-0.06,2170,inactive
TTPA,0.7,migration z between -2 and 2; enough cells,0.94,6340,inactive
NUPR1,-1.77,migration z between -2 and 2; enough cells,0.42,6730,inactive
RTCA,0.99,migration z between -2 and 2; enough cells,1,6011,inactive
TNNI3K,0.42,migration z between -2 and 2; enough cells,0.88,6150,inactive
KRTAP11-1,1.45,migration z between -2 and 2; enough cells,1.26,8010,inactive
CEPT1,-2.67,migration z below -2; enough cells,0.29,3361,active
TMEM132B,0.49,migration z between -2 and 2; enough cells,1.01,6503,inactive
ASIC3,-0.47,migration z between -2 and 2; enough cells,0.72,5594,inactive
THPO,-1.27,migration z between -2 and 2; enough cells,0.56,5038,inactive
NDUFS6,-0.52,migration z between -2 and 2; enough cells,0.7,5908,inactive
RCOR1,1.33,migration z between -2 and 2; enough cells,1.23,6432,inactive
PKNOX1,0.44,migration z between -2 and 2; enough cells,0.89,5567,inactive
HSPA4,0.6,migration z between -2 and 2; enough cells,0.92,4988,inactive
STMN2,-0.46,migration z between -2 and 2; enough cells,0.76,5692,inactive
RAB3D,-0.73,migration z between -2 and 2; enough cells,0.66,6070,inactive
PRELID1,0.84,migration z between -2 and 2; enough cells,1.1,5185,inactive
TMEM129,-0.28,migration z between -2 and 2; enough cells,0.82,6648,inactive
CIMAP1A,0.6,migration z between -2 and 2; enough cells,1.04,5973,inactive
MCOLN3,-1.12,migration z between -2 and 2; enough cells,0.59,4443,inactive
SIK1,0.42,migration z between -2 and 2; enough cells,0.88,5009,inactive
HS3ST6,-0.28,migration z between -2 and 2; enough cells,0.75,5734,inactive
ZNF671,-0.44,migration z between -2 and 2; enough cells,0.78,5766,inactive
STARD3,0.54,migration z between -2 and 2; enough cells,1.02,6145,inactive
FCGR3B,0.83,migration z between -2 and 2; enough cells,0.97,5595,inactive
CLCA2,0.75,migration z between -2 and 2; enough cells,0.95,5554,inactive
KRT12,0.55,migration z between -2 and 2; enough cells,1.03,5780,inactive
THOC2,-0.02,migration z between -2 and 2; enough cells,0.88,5720,inactive
SLC2A4,0.08,migration z between -2 and 2; enough cells,0.82,7431,inactive
LBP,-1.84,migration z between -2 and 2; enough cells,0.45,5016,inactive
PSMB8,-0.62,migration z between -2 and 2; enough cells,0.68,3788,inactive
MAML1,-0.05,migration z between -2 and 2; enough cells,0.8,5856,inactive
DUSP2,0.34,migration z between -2 and 2; enough cells,0.87,5676,inactive
RPL21,-1.42,migration z between -2 and 2; enough cells,0.52,4363,inactive
SMTNL2,-0.93,migration z between -2 and 2; enough cells,0.64,5614,inactive
SLC23A1,0.57,migration z between -2 and 2; enough cells,0.92,6813,inactive
TMEM41B,1.06,migration z between -2 and 2; enough cells,1.16,5138,inactive
NKX2-3,0.91,migration z between -2 and 2; enough cells,0.98,5616,inactive
CLEC2L,0.24,migration z between -2 and 2; enough cells,0.94,6108,inactive
HAP1,0.95,migration z between -2 and 2; enough cells,1.12,5799,inactive

Only “migration robust z-score” (6 entries from above):
PKNOX1: 0.44
HSPA4: 0.6
STMN2: -0.46
RAB3D: -0.73
PRELID1: 0.84
TMEM129: -0.28
